Data taken from the supplement of paper PMC9233669.
This sample is rich in variants without activity.

How the values were obtained:
biotinyl-Ile-oxazolone = assay: self-aminoacylation, catalytic enhancement (BIO) (fold over background); higher = more active; k-Seq, kA / k0A0; sequences stand for … in GGGAAUGGAUCCACAUCUACGAAUUC…UUCACUGCAGACUUGACGAAGCUG
Procedure, shortened: (§1)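 The uncatalyzed rate is the low-activity peak of a bimodal Gaussian fit, and catalytic enhancement is median kA divided by it. The kA values came from pseudo-first-order fits, with 1000 bootstraps, of per-sequence fraction reacted measured by streptavidin capture, triplicate qPCR and Illumina sequencing. Mutagenized RNA pools with a 21-nt variable region (0.43 μM) were reacted with each biotinyl-aminoacyl-oxazolone at 2–1250 μM in 50 μL HEPES/NaCl/KCl/MgCl2/CaCl2 buffer with 5% acetonitrile, pH 6.9–7.0, for 90 minutes at room temperature.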

biotinyl-Met-oxazolone = assay: self-aminoacylation, catalytic enhancement (BMO) (fold over background); higher = more active; k-Seq, kA / k0A0; sequences stand for … in GGGAAUGGAUCCACAUCUACGAAUUC…UUCACUGCAGACUUGACGAAGCUG
Procedure, shortened: as §1

biotinyl-Phe-oxazolone = assay: self-aminoacylation, catalytic enhancement (BFO) (fold over background); higher = more active; k-Seq, kA / k0A0; sequences stand for … in GGGAAUGGAUCCACAUCUACGAAUUC…UUCACUGCAGACUUGACGAAGCUG
Procedure, shortened: as §1

biotinyl-Leu-oxazolone = assay: self-aminoacylation, catalytic enhancement (BLO) (fold over background); higher = more active; k-Seq, kA / k0A0; sequences stand for … in GGGAAUGGAUCCACAUCUACGAAUUC…UUCACUGCAGACUUGACGAAGCUG
Procedure, shortened: as §1

biotinyl-Val-oxazolone = assay: self-aminoacylation, catalytic enhancement (BVO) (fold over background); higher = more active; k-Seq, kA / k0A0; sequences stand for … in GGGAAUGGAUCCACAUCUACGAAUUC…UUCACUGCAGACUUGACGAAGCUG
Procedure, shortened: as §1

biotinyl-Trp-oxazolone = assay: self-aminoacylation, catalytic enhancement (BWO) (fold over background); higher = more active; k-Seq, kA / k0A0; sequences stand for … in GGGAAUGGAUCCACAUCUACGAAUUC…UUCACUGCAGACUUGACGAAGCUG
Procedure, shortened: as §1

Row | Sequence | self-aminoacylation (biotinyl-Ile-oxazolone) | self-aminoacylation (biotinyl-Met-oxazolone) | self-aminoacylation (biotinyl-Phe-oxazolone) | self-aminoacylation (biotinyl-Leu-oxazolone) | self-aminoacylation (biotinyl-Val-oxazolone) | self-aminoacylation (biotinyl-Trp-oxazolone)
1 | UAGUAUGCUAAUAGUCGCAAG [Fam3.1 aminoacylation ribozyme variant] | 1.62 | 1.28 | 2 | 1.57 | 1.13 | 1.68
2 | UCACACUUCAAGCAAGCGGUC [Fam1B.1 aminoacylation ribozyme variant] | 0.965 | 1.02 | 0.807 | 0.991 | 1.06 | 0.746
3 | UCACACUUCAAGCAAUCGGGC [Fam1B.1 aminoacylation ribozyme variant] | 1.55 | 1.2 | 0.995 | 1.25 | 1.75 | 1.2
4 | UCACACUUCUAGCAAUCGGUC [Fam1B.1 aminoacylation ribozyme variant] | 0.788 | 0.604 | 0.768 | 0.628 | 0.748 | 0.741
5 | UUAAUUCAAACAAUCGGUCUG [Fam1A.1 aminoacylation ribozyme variant] | 0.882 | 0.804 | 3.57 | 0.923 | 0.836 | 2.47
6 | UUACUUCAAACAAUCCGUCUG [Fam1A.1 aminoacylation ribozyme variant] | 1.33 | 1.28 | 1.92 | 1.06 | 1.2 | 1.77
7 | UUACUUCAUACAAUCGGUCUG [Fam1A.1 aminoacylation ribozyme variant] | 1.19 | 1.19 | 1.42 | 1.09 | 1.19 | 1.03
